Earlier results as cited in patent US20100056488A1, “CORTICOSTEROID CONJUGATES AND USES THEREOF” (The McLean Hospital Corporation, priority 2002, published 2010).

Test system: cortisol production or ACTH
Settings: suppression of cortisol production or ACTH

**Q.** For `C[C@@H]1C[C@H]2[C@@H]3CCC4=CC(=O)C=C[C@]4(C)[C@@]3(F)[C@@H](O)C[C@]2(C)[C@@]1(O)C(=O)COP(=O)(O)O` [dexamethasone sodium phosphate], which CNS activity is on record?
**A.** The CNS activity was “CNS active”.
